Data source: PubChem BioAssay AID1259266 (Sanger Institute, 2017)
Shown is an unselected part of 794 reagents tested. 16 of all reagents (2%) count as active. 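Calls reflect knock-down alone, not drug synergy; viability seems capped at 1 and z-scores at 0.585.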 Entries without a mark were called inactive. The record does not give: the amount of reagent, the time to read-out.

- Screen: 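Essential genes and drug synergy among kinases and colorectal-mutated genes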 (primary screen)
- Cell system: LS123 human colorectal cancer cells
- Knock-down reagent: siRNA pool against human genes
- Challenge: anchor drugs BYL719 (1 µM), cetuximab (5 µg/ml) or trametinib (10 nM), each chosen to barely slow growth alone; DMSO vehicle as the drug-free arm
- Read-out: 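Replicate-averaged viability scaled to non-targeting pools, robust z-score for siRNA alone, and a synergy score per anchor drug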
- Direction: robust z-score, knock-down alone: higher = more cells surviving after knock-down; viability, knock-down alone: higher = more viable cells; synergy score with trametinib and synergy score with BYL719 and synergy score with cetuximab: higher = stronger synthetic lethality with drug
- Active means: 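Essential when the robust z-score of the knock-down alone is below -3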
- Calls: active = essential (knock-down alone cuts viability); inactive = no change

robust z-score, knock-down alone | viability, knock-down alone (fraction of control) | synergy score with trametinib | synergy score with BYL719 | synergy score with cetuximab | Target gene
0.585 | 1 | 0.0114 | -0.139 | -0.0122 | ARID1A (AT-rich interaction domain 1A)
0.585 | 1 | -0.109 | -0.159 | -0.0122 | NEK6 (NIMA related kinase 6)
-1.39 | 0.883 | -0.0353 | -0.148 | -0.0652 | MARK3 (microtubule affinity regulating kinase 3)
-2.58 | 0.812 | -0.00604 | -0.00252 | 0.0112 | KSR1 (kinase suppressor of ras 1)
0.282 | 0.982 | -0.0563 | -0.117 | -0.03 | SGK3 (serum/glucocorticoid regulated kinase family member 3)
0.585 | 1 | -0.103 | -0.0861 | -0.0122 | WNK1 (WNK lysine deficient protein kinase 1)
0.585 | 1 | -0.0708 | -0.0965 | -0.0122 | PHKA1 (phosphorylase kinase regulatory subunit alpha 1)
0.585 | 1 | -0.142 | -0.159 | -0.0122 | HUS1 (HUS1 checkpoint clamp component)
0.585 | 1 | -0.00718 | -0.0728 | 0.0212 | OXSR1 (oxidative stress responsive kinase 1)
0.585 | 1 | 0.097 | 0.09 | 0.113 | STK17A (serine/threonine kinase 17a)
0.585 | 1 | -0.186 | -0.156 | -0.0122 | TRPM6
0.552 | 0.998 | -0.131 | -0.133 | -0.0142 | DCLK1 (doublecortin like kinase 1)
0.585 | 1 | -0.0635 | -0.11 | -0.0122 | CDKN1C (cyclin dependent kinase inhibitor 1C)
-1.23 | 0.892 | -0.0797 | -0.126 | -0.0911 | NEK11 (NIMA related kinase 11)
0.183 | 0.976 | -0.0537 | -0.146 | 0.054 | NTN4 (netrin 4)
0.585 | 1 | -0.186 | -0.159 | -0.0122 | MAPK8 (mitogen-activated protein kinase 8)
-0.0367 | 0.963 | -0.0113 | -0.0241 | -0.0204 | SOX9 (SRY-box transcription factor 9)

3 neighbouring records already listed, for reference:
robust z-score, knock-down alone | viability, knock-down alone (fraction of control) | synergy score with trametinib | synergy score with BYL719 | synergy score with cetuximab | Target gene
-1.23 | 0.892 | -0.0797 | -0.126 | -0.0911 | NEK11 (NIMA related kinase 11)
0.183 | 0.976 | -0.0537 | -0.146 | 0.054 | NTN4 (netrin 4)
0.585 | 1 | -0.186 | -0.159 | -0.0122 | MAPK8 (mitogen-activated protein kinase 8)

Next records follow.
robust z-score, knock-down alone | viability, knock-down alone (fraction of control) | synergy score with trametinib | synergy score with BYL719 | synergy score with cetuximab | Target gene
0.585 | 1 | -0.0463 | -0.145 | -0.0122 | NME7 (NME/NM23 family member 7)
-0.662 | 0.926 | -0.0995 | -0.147 | -0.0854 | EPHB3 (EPH receptor B3)
0.369 | 0.987 | -0.146 | -0.108 | -0.0115 | DGKG (diacylglycerol kinase gamma)
0.585 | 1 | -0.179 | -0.0996 | -0.0122 | EFNA4 (ephrin A4)
-0.855 | 0.914 | -0.0527 | -0.00784 | -0.0262 | FGR (FGR proto-oncogene, Src family tyrosine kinase)
-0.657 | 0.926 | 0.0357 | -0.0414 | 0.109 | MAP3K3 (mitogen-activated protein kinase kinase kinase 3)
-1.51 | 0.876 | -0.0757 | 0.0102 | -0.0768 | HSPB8 (heat shock protein family B (small) member 8)
0.521 | 0.996 | -0.133 | -0.0345 | 0.00943 | STK40 (serine/threonine kinase 40)
0.585 | 1 | -0.0178 | -0.0757 | 0.0211 | DYRK4 (dual specificity tyrosine phosphorylation regulated kinase 4)
0.585 | 1 | -0.0149 | 0.0323 | 0.059 | DMPK (DM1 protein kinase)
-0.265 | 0.95 | -0.145 | -0.0399 | -0.0489 | RIOK2 (RIO kinase 2)
0.585 | 1 | -0.0727 | -0.0372 | -0.0122 | RSKR (ribosomal protein S6 kinase related)
0.585 | 1 | -0.111 | -0.136 | -0.0122 | CPNE3 (copine 3)
0.585 | 1 | -0.184 | -0.0542 | -0.0122 | BMX (BMX non-receptor tyrosine kinase)
0.392 | 0.989 | -0.0551 | -0.0828 | -0.0235 | KALRN (kalirin RhoGEF kinase)
0.585 | 1 | -0.108 | -0.159 | -0.0122 | EIF2AK2 (eukaryotic translation initiation factor 2 alpha kinase 2)
0.585 | 1 | -0.00751 | -0.0538 | -0.0122 | CDK16 (cyclin dependent kinase 16)
